Results are given in words; binding and its absence hold for the method and conditions named. Some binding calls cover weakened binding; strength is not graded here.
T1: Gla-domain deleted recombinant cynomolgus Protein S (cynomolgus monkey (Macaca fascicularis))
T1 sequence: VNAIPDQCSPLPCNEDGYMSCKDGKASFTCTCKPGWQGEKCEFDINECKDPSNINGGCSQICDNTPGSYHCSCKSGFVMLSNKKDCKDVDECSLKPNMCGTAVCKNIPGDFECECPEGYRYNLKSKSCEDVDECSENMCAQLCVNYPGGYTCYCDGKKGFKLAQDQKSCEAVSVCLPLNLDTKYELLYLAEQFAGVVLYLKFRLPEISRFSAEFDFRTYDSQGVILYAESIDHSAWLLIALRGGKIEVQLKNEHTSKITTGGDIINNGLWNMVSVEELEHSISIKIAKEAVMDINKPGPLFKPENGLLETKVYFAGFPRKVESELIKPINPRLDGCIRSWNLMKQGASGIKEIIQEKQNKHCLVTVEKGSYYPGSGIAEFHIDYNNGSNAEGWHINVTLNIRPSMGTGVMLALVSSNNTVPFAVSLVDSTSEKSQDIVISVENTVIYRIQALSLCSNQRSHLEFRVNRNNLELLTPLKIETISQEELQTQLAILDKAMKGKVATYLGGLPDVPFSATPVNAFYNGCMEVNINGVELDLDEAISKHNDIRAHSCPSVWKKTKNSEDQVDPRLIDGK

B1: M-hProtS-2F380A1 monoclonal antibody (antibody, mouse IgG1, V domains shown)
VH: EVKLEESGGGLVQPGGSMKLSCAASGFTFSDAWMDWVRQSPEKGLEWVAEVRSKADNHATYYAESVKGRFTISRDDSKSAVYLQMNSLRPEDTGIYYCTLTTAFLFDSWGQGTTLTVSS
VL: QIALTQSPAIMSASPGEKVTMTCSVNSSVSYMHWYQQKPGSSPRLWIYDTSNLVSGVPGRFSGSGSGTSYSLTLSSMEAEDAATYYCQQYSGYLYTFGGGTKLEIKR
B2: M-hProtS-6F138A3 monoclonal antibody (antibody, V domains shown)
VH: QVHLKESGPGLVAPSQNLSITCTVSGFSLTGYGVSWVRQPPGKGLEWLGMIWGDGTTDYNSTLKSRLSISKDNSKSQVFLKMNSLQIDDTARYYCARDPGAMDYWGQGTSVTVSS
VL: QIVLTQSPAIMSASPGEKVTITCSATSSVTYMHWFQQKPGTSPKLWIFSTSNLASGVPPRFSGSGSGTSYSLTISRMEAEDAATYYCQQRSSYPPTFGGGTKLEIKR
B3: M-hProtS-2F382A1 monoclonal antibody (antibody, mouse IgG1, V domains shown)
VH: EVKLEESGGGLVQPGGSMKLSCAASGFTFSDAWMGWVRQSPEKGLEWVAEIRGKANNHATYYSESVKGRFTISRDDSKSSVYLQMNSLRAEDTGIFYCCLITAFLFDYWGQGTTLTVSS
VL: QIVLTQSPAIMSASPGEKVTMTCSGRSSENYMYWYQQKPGSPPRLWIYDTSNLVSGVPARFSGSRSGTSYSLTISSMEAEDAATYYCQQFNGYPYTFGGGTKLEIRR
B4: M-hProtS-6F216A3 (mAb 0914) monoclonal antibody (antibody, V domains shown)
VH: QVQLQQPGAELVRPGASVKLSCKASGYTFTSYWINWVKQRPEQGLEWIGRIDPYDSETHYNQKFKDKAILTVDKSSSTAYMQLSSLTSEDSAVYYCARWGGSGYAMDYWGQGTSVTVSS
VL: QIVLSQSPAILSASPGEKVTMTCRASSSVSYMYWYQQKPGSSPKPWIYATSNLASGVPARFSGSGSGTSYSLTISRVEAEDAATYYCQQWSSIPPTFGGGTKLEIKR
B5: M-hProtS-2F4A1 monoclonal antibody (antibody, V domains shown)
VH: EVKLEESGGGLVQPGGSMKLSCAASGFTFSDAWMDWVRQSPEKGLEWVAEIRSKANNHATYYAESVKGRFTISRDDSKSGVYLQMNSLRPEDTGIYYCTLTTAFLFDYWGQGTTLTVSS
VL: QIALTQSPAIMSASPGEKVTMTCSVSSSVSYMHWYQQKPGSSPRLWIYDTSNLVSGVPGRFSGSGSGTSYSLTLSSMEAEDAATYYCQQYSGYLYTFGGGTKLEIKR
B6: M-hProtS-3F2A1 monoclonal antibody (antibody, V domains shown)
VH: EVQLQESGPSLVKPSQTLSLTCSVTGDSITSGYWNWIRKFPGNKLEYMGYISFSGSTYYNPSLKSRISITRDTSKNQYYLQLNSVTTEDTATYYCAREFAYWGQGTLVTVSA
VL: DIVLTQSPATLSVTPGDSVSLSCRASQSISNNLHWYQQKSHESPRLLIKFVSQSISGIPSRFSGSGSGTDFTLSINSVETEDFGMYFCQQSNSWPWTFGGGTKLEIKR
B7: M-hProtS-3F38A2 monoclonal antibody (antibody, mouse IgG1, V domains shown)
VH: EVLLQQSGPELVKPGASVKIPCKASGYTFTDYNMDWVKQSHGKSLEWIGDINPNNGDTFYNQKFKGKATLTVDKSSSTAYMELRSLTSEDTAVYYCARSEIFTTAPDYGMGYWGQGTSVTVSS
VL: ENVLTQSPAIMSASPGEKVTMTCRASSSVSSSYLHWYQQRSGASPKLWIYGTSNLASGVPARFSGSGSGTSYSLTISSVEAEDAATYYCQQYSGYPRTFGGGTKLEIKR
B8: M-hProtS-3F62A5 monoclonal antibody (antibody, mouse IgG1, V domains shown)
VH: EVLLQQSGPELVKPGASVKITCKASGYTFTDYNMDWVKQSHGKSLEWIGDIDPNNGGTIYNQEFTGKATLTVDTSSSTAYMELRSLTSEDTAVYYCVRSEIFTTAPDYGVDYWGQGTSVTVSS
VL: ENVLTQSPAIMSASPGEKVTMTCRASSSVSSSYLHWYRQKSGASPKLWIYSTSNLASGVPARFSGSGSGTSYSLTISRVEAEDAATYYCQQYSGYPRTFGGGTKVEIKR
B9: M-hProtS-6F128A2 monoclonal antibody (antibody, mouse IgG1, V domains shown)
VL: SIVMTQTPKFLLVSAGDRVTITCKASQSVSNDVAWYQQKPGQSPKLLIYYASNRYTGVPDRFTGSGYGTDFTFTISTVQAEDLAVYFCQQDYSSPYTFGGGTKLEIKR
V domain: QVQLQQPGAELVRPGASVKLSCKASGYTFTSYWINWVKQRPEQGLEWIGRIDPYDSETHYNQKFKDKAILTVDKSSSTAYMQLSSLTSEDSAVYYCARWGGSGYAMDYWGQGTSATVSS
B10: M-hProtS-6F153A2 monoclonal antibody (antibody, mouse IgG1, V domains shown)
VH: QIQLVQSGPELKKPGETVKISCKASGYTFSDYSMHWVKQTPGEGLKWMGWMNTGTGEPTYADDFKGRFAFSLETSATTAHLQINNLKNEDTATYFCARRLYYGTGLAYWGQGTLVTVSA
VL: DIVMTQSHKFMSTSVGDRVSITCKASQDVSTGVAWYQQKPGQSPKLLIFSASSRYSGVPDRFTGSGSGTDFTFTISSVQAEDLAVYYCQQHYSSPRTFGGGTKLEIKR

Columns and labels:
[1] = target: EGF domain 1 and 2 of recombinant human Protein S (human) (UniProt P07225); experiment: ELISA, calcium-free TBS
[2] = target: T1, Gla-domain deleted recombinant cynomolgus Protein S (cynomolgus monkey (Macaca fascicularis)); experiment: ELISA, calcium-free TBS
[3] = target: T1, Gla-domain deleted recombinant cynomolgus Protein S (cynomolgus monkey (Macaca fascicularis)); experiment: ELISA, recombinant antibody
[4] = target: EGF domain 1 and 2 of recombinant human Protein S (human) (UniProt P07225); experiment: ELISA, recombinant antibody

Binder | binding [1] | binding [2] | binding [3] | binding [4]
B1 | binds | binds |  | 
B2 |  | binds | binds | 
B3 | binds | binds |  | 
B4 | binds | binds | binds | binds
B5 | binds | binds | binds | binds
B6 | binds | binds | binds | binds
B7 |  | binds |  | 
B8 |  | binds |  | 
B9 | binds | binds |  | 
B10 |  | binds |  | 
